Test results taken from PubChem BioAssay AID2029 (NMMLSC, 2009).
In all, about 320,000 compounds went through this assay and about 210 (0.066%) were called active. The source calls these results inconclusive, neither active nor inactive.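 The calls were made as follows: active = GFP response relative to DMSO above a set limit, near the screen mean plus 3 SD (cut at about 150% in these data); inconclusive = Fewer than 70 cells measured for a yeast strain; inactive = the rest.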

assay: TOR pathway RTG branch CIT2 reporter changes – S. cerevisiae, GFP fusion, multiplex flow cytometry, MLPCN library, primary screen (AID 2029); conditions: S. cerevisiae CIT2-GFP strain, 3 h, at 10 µM, 100 means same as DMSO wells

Compound	outcome
CC(C)(C)OC(=O)N1CCC(N(C(=O)c2ccccc2)c2ccc(F)cc2)CC1	inconclusive
